Our source for the binding values is paper PMC7378191.

Test [1] addresses T1, Endogenous HSD17B10 (HCT116 cells) (human (endogenous in HCT116)) (UniProt Q99714).
T1 sequence: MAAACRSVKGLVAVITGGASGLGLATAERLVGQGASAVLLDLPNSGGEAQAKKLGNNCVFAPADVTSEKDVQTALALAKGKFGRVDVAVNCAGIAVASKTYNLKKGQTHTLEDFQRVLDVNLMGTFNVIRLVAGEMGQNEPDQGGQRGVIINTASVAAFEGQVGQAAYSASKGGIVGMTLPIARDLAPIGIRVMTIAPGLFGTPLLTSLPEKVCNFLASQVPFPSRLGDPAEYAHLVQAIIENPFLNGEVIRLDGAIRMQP
In words: co-IP; endogenous proteins of HCT116 cells; lysates incubated with 1 μg anti-SIRT3 or anti-HSD17B10 (rabbit or mouse IgG as control) at 4 °C overnight, Protein A/G agarose beads; western blot. On the technique in general: In western blotting, separated proteins are transferred to a membrane and probed.

Test [2] addresses T2, Flag-tagged HSD17B10 expressed in HCT116 cells (human) (UniProt Q99714).
T2 sequence: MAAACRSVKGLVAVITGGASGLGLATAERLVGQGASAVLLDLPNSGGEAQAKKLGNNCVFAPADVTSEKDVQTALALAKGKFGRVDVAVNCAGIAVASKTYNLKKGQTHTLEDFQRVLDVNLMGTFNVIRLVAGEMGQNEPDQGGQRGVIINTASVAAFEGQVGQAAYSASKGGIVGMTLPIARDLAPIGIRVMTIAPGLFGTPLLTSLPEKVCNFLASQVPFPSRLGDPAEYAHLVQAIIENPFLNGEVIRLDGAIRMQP
Description: co-IP; Flag-tagged HSD17B10 transfected into HCT116 cells; cells treated with H2O2, EBSS or serum starvation for the indicated time; immunoprecipitation with M2 beads.

The target of a further test is T3, GST-HSD17B10 (human) (UniProt Q99714).
T3 sequence: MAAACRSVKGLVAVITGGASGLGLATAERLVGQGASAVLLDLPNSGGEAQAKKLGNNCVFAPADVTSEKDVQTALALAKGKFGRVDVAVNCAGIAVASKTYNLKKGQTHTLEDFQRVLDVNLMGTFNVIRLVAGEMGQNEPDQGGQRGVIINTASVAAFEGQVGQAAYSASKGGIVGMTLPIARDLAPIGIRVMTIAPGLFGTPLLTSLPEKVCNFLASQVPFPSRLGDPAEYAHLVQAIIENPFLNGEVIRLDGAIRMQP
In words: pull-down; GST fusion proteins bound to GST-agarose beads, incubated with Flag-tagged proteins purified from HEK293T in buffer BC200 at 4 °C overnight; washed with BC100; western blot; both purified.

In test [3] the target is T4, Flag-tagged HSD17B10 (17-beta-hydroxysteroid dehydrogenase 10), wild type (human) (UniProt Q99714).
T4 sequence: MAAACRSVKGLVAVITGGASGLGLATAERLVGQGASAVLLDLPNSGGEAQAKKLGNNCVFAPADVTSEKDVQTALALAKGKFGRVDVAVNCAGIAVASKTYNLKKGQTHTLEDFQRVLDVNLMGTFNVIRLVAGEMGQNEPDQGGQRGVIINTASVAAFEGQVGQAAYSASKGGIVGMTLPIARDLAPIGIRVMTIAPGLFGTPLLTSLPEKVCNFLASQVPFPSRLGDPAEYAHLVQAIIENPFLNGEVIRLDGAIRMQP
In words: co-IP; tagged proteins co-transfected into HEK293T cells; lysis in BC100 buffer (100 mM NaCl, 20 mM pH7.3 Tris, 20% glycerol, 0.2% NP-40); immunoprecipitation with anti-Flag M2 beads at 4 °C overnight; western blot.

A further test has as its target Flag-tagged SIRT3. Described as above.
The target in another test is GST-SIRT3. Description: pull-down; GST fusion proteins bound to GST-agarose beads, incubated with Flag-tagged proteins purified from HEK293T in buffer BC200 at 4 °C overnight; washed with BC100; western blot; both purified.
In test [4] the target is Endogenous SIRT3 (HCT116 cells) (human (endogenous in HCT116)). Description: co-IP; endogenous proteins of HCT116 cells; lysates incubated with 1 μg anti-SIRT3 or anti-HSD17B10 (rabbit or mouse IgG as control) at 4 °C overnight, Protein A/G agarose beads; western blot.

No constants are given. Whether binding was seen depends on the method and setting. Binding calls can cover weak binding; strength is not graded here. For some of these results: Sequences can lack the tags named with a protein. For some of these results: In cells and extracts the contact can be indirect.

Consider “Endogenous SIRT3 (HCT116 cells) (human (endogenous in HCT116)) (enzyme)”, for which the binding entry in test [1] and in test [2] was “binds” throughout.
For Flag-tagged SIRT3 (enzyme), in the test with GST-HSD17B10 (human), the binding entry is reported as “binds”.
As to “HA-tagged SIRT3 (NAD-dependent deacetylase Sirtuin 3) (enzyme)”, in test [3], the binding result is “binds”.

B1: HA-tagged HSD17B10 (protein, UniProt Q99714 1-261)
chain: MAAACRSVKGLVAVITGGASGLGLATAERLVGQGASAVLLDLPNSGGEAQAKKLGNNCVFAPADVTSEKDVQTALALAKGKFGRVDVAVNCAGIAVASKTYNLKKGQTHTLEDFQRVLDVNLMGTFNVIRLVAGEMGQNEPDQGGQRGVIINTASVAAFEGQVGQAAYSASKGGIVGMTLPIARDLAPIGIRVMTIAPGLFGTPLLTSLPEKVCNFLASQVPFPSRLGDPAEYAHLVQAIIENPFLNGEVIRLDGAIRMQP
In the case of B1, the binding result in the test with Flag-tagged SIRT3 was “binds”.

B2: Flag-tagged HSD17B10 (17-beta-hydroxysteroid dehydrogenase 10), wild type (protein, UniProt Q99714 1-261)
chain: MAAACRSVKGLVAVITGGASGLGLATAERLVGQGASAVLLDLPNSGGEAQAKKLGNNCVFAPADVTSEKDVQTALALAKGKFGRVDVAVNCAGIAVASKTYNLKKGQTHTLEDFQRVLDVNLMGTFNVIRLVAGEMGQNEPDQGGQRGVIINTASVAAFEGQVGQAAYSASKGGIVGMTLPIARDLAPIGIRVMTIAPGLFGTPLLTSLPEKVCNFLASQVPFPSRLGDPAEYAHLVQAIIENPFLNGEVIRLDGAIRMQP
As to B2, the binding result in the test with GST-SIRT3 is given as “binds”.

B3: Endogenous HSD17B10 (HCT116 cells) (protein, UniProt Q99714 1-261)
chain: MAAACRSVKGLVAVITGGASGLGLATAERLVGQGASAVLLDLPNSGGEAQAKKLGNNCVFAPADVTSEKDVQTALALAKGKFGRVDVAVNCAGIAVASKTYNLKKGQTHTLEDFQRVLDVNLMGTFNVIRLVAGEMGQNEPDQGGQRGVIINTASVAAFEGQVGQAAYSASKGGIVGMTLPIARDLAPIGIRVMTIAPGLFGTPLLTSLPEKVCNFLASQVPFPSRLGDPAEYAHLVQAIIENPFLNGEVIRLDGAIRMQP
B3: in test [4], the binding result is recorded as “binds”.
